In PubChem BioAssay AID1508600 (Functional Genomics Laboratory (NCATS/FGL), 2020):
In all, about 53,000 sequences went through this assay and about 3,700 (7%) were called active.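 The calls were made as follows: active = gene knockdowns whose robust z-score for IL-1 alpha signal is at least 2 or at most -2, so actives lie on both sides; inactive = the rest.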 Some of the results follow.

assay: Components of the Cytosolic LPS Sensing Pathway: Gene Identification via Genome-wide siRNA Screen; conditions: RAW264.7 macrophages, IL-1a HTRF, actives lie on both sides, screened at 100 nM (by protocol), cells primed 5 h with Pam3CSK4 first;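 also: robust z of the log signal after scaling to non-targeting control siRNA wells of the plate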
Method in brief: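 Mouse macrophage line RAW264.7 is transfected with siRNA (100 nM final), grown 48h, primed with TLR ligand Pam3CSK4 5 h and given intracellular LipidA 24 h. IL-1a in supernatant is read by HTRF and viability by luminescence.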

Row | Sequence | z-score
1 | GCUAGAUCUCACCAAACUUTT against Ddx21 | inactive: -0.117
2 | GGGCUCUGUCAGAUAAUCUTT against Gm9918 | inactive: 1.45
3 | GGUAGCACAUAGUCUAAAATT against AA467197 | inactive: 0.933
4 | GGUCUAAGUCUGAAUGGCCTT against Agrp | inactive: 0.539
5 | GGGAUUUCACUCCCUAAAGTT against Lyrm7 | inactive: 0.497
6 | GGUCAAUAUCUUGAUGGUATT against Vmn1r213 | inactive: -0.252
7 | GAAAGAAAAUCGUGUCAGATT against Olfr1199 | inactive: -0.187
8 | GCUUGUUAGUUUAAUUAGGTT against Elovl5 | inactive: 0.533
9 | GGAGCAAGCCUUUAAAAGATT against Hnrnpk | inactive: 0.39
10 | CCUCUCAAGAAAUCGUGCATT against Trim47 | inactive: 0.978
11 | CCAAUACUAUACCAACUGCTT against Cacna1g | inactive: 0.291
12 | GCAAAAUUGGUUCCAAUGGTT against Rad51 | inactive: 0.528
13 | GCUGUGCUACCCUCAUUCUTT against Npas4 | inactive: -1.43
14 | GCAUUGUGUCACAAAAUUUTT against Pde5a | inactive: 0.0151
15 | GGUGGUCAGGAAAUGAGUCTT against Lrch4 | active: 2.09
16 | GCCCAUAUCUUGCCGAAAUTT against Tm2d1 | inactive: 0.578
17 | GGGAGUUUGACAUUUUCGATT against Lect2 | inactive: -0.0931
18 | GCCGAACAAAAACACCGAUTT against Trav3-3 | inactive: 1.1
19 | GGCUGUCGGUUCAUUAACCTT against Atad1 | inactive: -0.739
20 | CCUAUGUUUGGUGAUUAUGTT against Alg6 | inactive: 0.264
21 | GCACGGAAGAAUCCAAAGATT against Miga1 | inactive: 1.68
22 | CCUGCCUGGACUAUCAAGATT against A530095I07Rik | inactive: -1.44

Row | Sequence | z-score
23 | CCAUAACCCUUAGGAAAAGTT against Fam78b | inactive: -0.0447
24 | GCCUUAUGUGUUACAUUAUTT against Prkar1a | inactive: 0.782
25 | GGCUAUGGACAAUAUGACUTT against Fdx1 | inactive: -0.797
26 | GGAGAAUUUAGAGCUACCATT against Atg10 | inactive: -1.56
27 | GGGUUAGUCACCUCAUUUUTT against Abhd5 | inactive: 1.08
28 | GCUGGGAUAUGAAAUCUAUTT against Gprc6a | active: 2.74
29 | GGAGAGCAUGUGACCAAAATT against Safb2 | inactive: 0.758
30 | CGGGAAACGUGAAUUUUUUTT against Mtdh | inactive: 0.635
31 | GGACAAUUCAGAGUGAUAGTT against Mog | active: -2.21
32 | GGCUGUUCAUUUAGAAGAATT against Rps27l | inactive: 0.482
33 | GGAACAGUGACUCUUCGGGTT against Sorbs1 | inactive: -0.158
34 | GGAGCUAAGUGAUUUUAGATT against Mtf1 | inactive: 0.403
35 | GGAUCUAUGAUCUCUCAGUTT against Gstt3 | inactive: 0.144
36 | GGCUUUAGCUAAAGAAGAUTT against Fam228b | inactive: 0.087
37 | CCUACCACAACAUGUAUCCTT against S100a11 | active: 2.25
38 | GCUAACUAUCCCUCCACUGTT against Retnla | inactive: -0.204
39 | GAAAAGAGCUGUAAGAAUGTT against 1700001G17Rik | inactive: 1.65
40 | GGGAAGUCAUUCACAUAUUTT against Rab39b | inactive: -1.58
41 | GCUGAAGCAAGGUAGCGAUTT against Gbp5 | inactive: 0.277
42 | GGAAAAAUCAAAAGUGUUGTT against Tamm41 | inactive: -1.55
43 | GGAUGUAAUGCGAAGUUUUTT against Vps52 | inactive: 0.0121
44 | GGAAGUUAGCAUUUCUUCCTT against Xpnpep2 | inactive: 0.478

Row | Sequence | z-score
45 | CGGUGUCCAACCUUACACUTT against Slc8a2 | inactive: -0.352
46 | GGAAAUAUGUAUCAGCUACTT against Smyd5 | inactive: 0.514
47 | CCACUGAUGUGAGAUAUAATT against Zp2 | inactive: 0.0638
48 | GGAAGGACAACACUGCACCTT against Cd40 | active: 2.44
49 | GGCGAUUUACAACUUUGGATT against H2aw | inactive: 0.0941
50 | GGAUGUCAAGCAAAUUUUUTT against Slc25a13 | inactive: 0.802
51 | GCAGGAGGAUUAGUAAAUUTT against Ier2 | inactive: 0.966
52 | CGGUACAAACAGUGCAGAUTT against Eif4e3 | inactive: 1.77
53 | GGGACGACUCUUUCUUAUGTT against Olfr1264 | inactive: 0.822
54 | GGCUUUUUAAAUGCUUCCCTT against Prr7 | inactive: 0.469
55 | GGAAGAUGACAAGUUGAUCTT against Spsb1 | inactive: -0.0523
56 | CGUGAACAAAAGAAGGGCUTT against Scel | inactive: 0.494
57 | CGGAAAUUCUAGAAGCCAUTT against Kcnab2 | inactive: -0.288
58 | GCAGUUGGGACAAGCCUUUTT against Trak2 | inactive: 1.09
59 | GGAGAGUGACAUCAUCGUATT against Obsl1 | inactive: -0.0139
60 | GGACAUACUAAUGAGGUCATT against Tbl1x | inactive: 0.389
61 | GGAAGAAGGAACAUUUUGGTT against Fbxo25 | inactive: -0.388
62 | GCUCAACAGGCUCAACUACTT against Cndp2 | inactive: 0.492
63 | GGGAAAACAGCUCCUCACATT against Zfhx4 | inactive: -1.05
64 | GGUAUCAAAGCUGAAAUUGTT against Sptbn1 | inactive: -1.27
65 | GGAUGAGAGUCCACAGCAATT against Lpar3 | inactive: -1.26
66 | GGGCUACAAACAUGGAACGTT against Dalrd3 | inactive: 0.319

Row | Sequence | z-score
67 | GGCUUGAGACAUUUUUCAATT against Tfdp2 | inactive: 0.876
68 | GGCCUGGCACCUCAUAUUATT against Cnot1 | inactive: 1.38
69 | GCCCGAUAUUAUAACGGUGTT against Eomes | active: 2.97
70 | GCUGAAUACGAUGAAGUCATT against BC051019 | inactive: -0.332
71 | GGUCUCAGGUUGUUUUGAUTT against Rasl10b | inactive: -1.01
72 | GCUUUCCUAGACAAUCUAUTT against Arhgap19 | inactive: 0.0654
73 | GGAUGUAGAGAAAAUGAUCTT against Ces3b | inactive: 0.763
74 | GGUCAUGAAUUACUAUUCCTT against Cyth2 | inactive: 1.02
75 | AUUCUGAACACUCCUCGGATT against Spink8 | inactive: -0.0439
76 | GGAUCCCAGGGAUCGAAUGTT against Osbpl9 | inactive: 0.402
77 | GCUAUAUCCACCUUAUGUCTT against Pigq | inactive: -0.635
78 | GACCCUAGCUCACUUUGGUTT against Gm9903 | inactive: 0.287
79 | GGAGAAACUGUAGUAAAUGTT against Dip2b | inactive: 0.418
80 | AGUAUGGCAAAAGGGAACATT against Iigp1b | inactive: 0.0389
81 | GGAGUUUGAUCAGAUCCUATT against Asf1b | inactive: 1.74
82 | GGAAGCAUGCGAGAUCUAUTT against Napa | inactive: 1.31
83 | GGAAGCAGAUCAAAGACAUTT against Efhd2 | inactive: 0.393
84 | GGUCCAGAAUGUGUCCCAGTT against Olfm2 | inactive: 0.257
85 | GGUGAAACCUGUCAUUCACTT against Dcdc2a | inactive: -0.405
86 | GGCGGUAACCACUUUCACGTT against Mycn | inactive: -0.567
87 | GGGUGAUUUUUGUAAGAUATT against Mpp2 | inactive: -1.2
88 | GGAAAAAAUCACUUUCAUCTT against Clasrp | inactive: -0.657

In a second layout: entries from further up
Row	Sequence	z-score
60	GGACAUACUAAUGAGGUCATT against Tbl1x	inactive: 0.389
61	GGAAGAAGGAACAUUUUGGTT against Fbxo25	inactive: -0.388
62	GCUCAACAGGCUCAACUACTT against Cndp2	inactive: 0.492
63	GGGAAAACAGCUCCUCACATT against Zfhx4	inactive: -1.05
64	GGUAUCAAAGCUGAAAUUGTT against Sptbn1	inactive: -1.27
66	GGGCUACAAACAUGGAACGTT against Dalrd3	inactive: 0.319
67	GGCUUGAGACAUUUUUCAATT against Tfdp2	inactive: 0.876
68	GGCCUGGCACCUCAUAUUATT against Cnot1	inactive: 1.38
69	GCCCGAUAUUAUAACGGUGTT against Eomes	active: 2.97
70	GCUGAAUACGAUGAAGUCATT against BC051019	inactive: -0.332
71	GGUCUCAGGUUGUUUUGAUTT against Rasl10b	inactive: -1.01
72	GCUUUCCUAGACAAUCUAUTT against Arhgap19	inactive: 0.0654
74	GGUCAUGAAUUACUAUUCCTT against Cyth2	inactive: 1.02
75	AUUCUGAACACUCCUCGGATT against Spink8	inactive: -0.0439
76	GGAUCCCAGGGAUCGAAUGTT against Osbpl9	inactive: 0.402
77	GCUAUAUCCACCUUAUGUCTT against Pigq	inactive: -0.635
78	GACCCUAGCUCACUUUGGUTT against Gm9903	inactive: 0.287
79	GGAGAAACUGUAGUAAAUGTT against Dip2b	inactive: 0.418
81	GGAGUUUGAUCAGAUCCUATT against Asf1b	inactive: 1.74
82	GGAAGCAUGCGAGAUCUAUTT against Napa	inactive: 1.31
83	GGAAGCAGAUCAAAGACAUTT against Efhd2	inactive: 0.393
84	GGUCCAGAAUGUGUCCCAGTT against Olfm2	inactive: 0.257
85	GGUGAAACCUGUCAUUCACTT against Dcdc2a	inactive: -0.405
86	GGCGGUAACCACUUUCACGTT against Mycn	inactive: -0.567
87	GGGUGAUUUUUGUAAGAUATT against Mpp2	inactive: -1.2
88	GGAAAAAAUCACUUUCAUCTT against Clasrp	inactive: -0.657

(list continues)

Row | Sequence | z-score
89 | GGAGGUGCUUUAUGUCGAUTT against Kdm6a | inactive: 0.789
90 | CCCAAGCAAUUACAGUACUTT against Olfr263 | inactive: -0.543
91 | GGAGAAGCUACUCAACAAUTT against Ndufs8 | inactive: 0.319
92 | CGUUGGAUCUUGAUAAAACTT against Lpar2 | inactive: 0.179
93 | GGCCUUGCGUCUCAACCUUTT against Tma16 | inactive: 0.32
94 | GGACCUGAGUGUGUCUCAGTT against Serpina3m | inactive: -0.477
95 | CCUCUCUCAACCAGUGAAATT against Grb7 | inactive: -1.6
96 | GGUGAAUGUAGUGUUAAAATT against Cyrib | inactive: -0.204
97 | GGAAGUGAAUGGACAGCCATT against Mpp2 | inactive: -1.22
98 | CCAAGAACUAUAUUUCUUCTT against Tars | inactive: -0.0872
99 | GCCACUGGAGUAUAGCCAGTT against Pcnx3 | inactive: 0.019
100 | GGAGAAAGAGACGGACAACTT against Fgfr1 | active: 2.8
101 | GGAAGGUUUCGCUUUGAAUTT against Tarm1 | inactive: -0.469
102 | GGUGGCAUAUACUUUGCUUTT against Cmtm2a | inactive: 0.583
103 | GGUUGCAUUUCUCAAGUAUTT against Olfr19 | inactive: 0.41
104 | GGAGGUGCAGAAAAUCAUCTT against Mab21l3 | inactive: 0.258
105 | GCUGGAUGCAAAUGAUCUUTT against D17H6S56E-5 | inactive: 0.0271
106 | GGCUGGAUACUCAGUGCUATT against Abhd16b | active: 6.41
107 | CCUGAUCUAAUCCUAAAUGTT against Pgr | inactive: -0.171

Some values from above.
GGAAGAUGACAAGUUGAUCTT against Spsb1 – z-score: inactive: -0.0523
GGAGGUGCAGAAAAUCAUCTT against Mab21l3 – z-score: inactive: 0.258
